Laboratory results reported in patent US20170281566A1, “COMBINATIONS OF LSD1 INHIBITORS FOR THE TREATMENT OF HEMATOLOGICAL MALIGNANCIES” (HOFFMANN-LA ROCHE INC., priority 2016, published 2017).
The name of at least one read-out is uncertain.

Experiments:
Experiment in all cases: Viability assay (96 hours), Alamar Blue, single agent
Format in all cases: cell-based
OCI-AML2 cells = conditions: OCI-AML2, 96 hours
Description: (§1) AML cell lines were maintained in RPMI 10% FBS medium at 37° C. in a humidified incubator with controlled 5% CO2 atmosphere. Cell freezing and thawing was performed following recommendation from ATCC. Genetic profiling of the cell lines used is available in table 2. […] Three wells were reserved for each experimental condition; medium-only and vehicle-treated controls were also added for background correction and normalization respectively. […] Alamar Blue® is a cell viability indicator that uses the natural reducing power of living cells to convert resazurin to the fluorescent molecule, resorufin^43.

MV(4;11) cells = test system: MV(4;11) cells
Description: as §1

MOLM-13 cells = conditions: MOLM-13, 96 hours
Description: as §1

HL-60 cells = conditions: HL-60, 96 hours
Description: as §1

KASUMI-1 cells = conditions: KASUMI-1, 96 hours
Description: as §1

OCI-AML3 cells = conditions: OCI-AML3, 96 hours
Description: as §1

THP-1 cells = conditions: THP-1, 96 hours
Description: as §1

Measured: Reduction of viability (compared to vehicle controls)

CN(C)CC[C@H](CSc1ccccc1)Nc1ccc(S(=O)(=O)NC(=O)c2ccc(N3CCN(Cc4ccccc4-c4ccc(Cl)cc4)CC3)cc2)cc1[N+](=O)[O-] [ABT737, 4-[4-[[2-(4-chlorophenyl)phenyl]methyl]piperazin-1-yl]-N-[4-[[(2R)-4-(dimethylamino)-1-phenylsulfanylbutan-2-yl]amino]-3-nitrophenyl]sulfonylbenzamide]
not listed: OCI-AML3 cells | THP-1 cells
greater than 20%: all other assays above

Nc1ccn([C@@H]2O[C@H](CO)[C@@H](O)[C@@H]2O)c(=O)n1 [ARA-C, Cytarabine]
greater than 20%: all assays above

CC1=C(/C=C/C(C)=C/C=C/C(C)=C/C(=O)O)C(C)(C)CCC1 [ATRA, Tretinoin]
not listed: KASUMI-1 cells
greater than 20%: all other assays above

Nc1ncn([C@@H]2O[C@H](CO)[C@@H](O)[C@H]2O)c(=O)n1 [Azacitidine]
greater than 20%: all assays above

Nc1ncn([C@H]2C[C@H](O)[C@@H](CO)O2)c(=O)n1 [Decitabine, 5-aza-2′-deoxycytidine]
greater than 20%: all assays above

CC(C)N(CCCNC(=O)Nc1ccc(C(C)(C)C)cc1)C[C@H]1O[C@@H](n2ccc3c(N)ncnc32)[C@H](O)[C@@H]1O [EPZ004777, 7-[5-Deoxy-5-[[3-[[[[4-(1,1-dimethylethyl)phenyl]amino]carbonyl]amino]propyl](1-methylethyl)amino]-β-D-ribofuranosyl]-7H-pyrrolo[2,3-d]pyrimidin-4-amine]
greater than 20%: MV(4;11) cells | MOLM-13 cells

CC(C)N(C[C@H]1O[C@@H](n2cnc3c(N)ncnc32)[C@H](O)[C@@H]1O)[C@H]1C[C@@H](CCc2nc3cc(C(C)(C)C)ccc3[nH]2)C1 [EPZ5676, Pinometostat]
greater than 20%: MV(4;11) cells | MOLM-13 cells

Nc1ccccc1NC(=O)c1ccc(CNC(=O)OCc2cccnc2)cc1 [Entinostat]
greater than 20%: all assays above

COc1ccc(C2=N[C@@H](c3ccc(Cl)cc3)[C@@H](c3ccc(Cl)cc3)N2C(=O)N2CCNC(=O)C2)c(OC(C)C)c1 [Nutlin3A, 4-[[(4S,5R)-4,5-bis(4-chlorophenyl)-4,5-dihydro-2-[4-methoxy-2-(1-methylethoxy)phenyl]-1H-imidazol-1-yl]carbonyl]-2-piperazinone]
greater than 20%: OCI-AML2 cells | OCI-AML3 cells | MOLM-13 cells | THP-1 cells

N[C@H]1CC[C@H](N[C@@H]2C[C@H]2c2ccccc2)CC1 [ORY-1001, (trans)-N1-((1R,2S)-2-phenylcyclopropyl)cyclohexane-1,4-diamine]
not listed: OCI-AML2 cells
greater than 20%: all other assays above

CC(C)(C)c1cc(NC(=O)Nc2ccc(-c3cn4c(n3)sc3cc(OCCN5CCOCC5)ccc34)cc2)no1 [Quizartinib]
greater than 20%: OCI-AML2 cells | MV(4;11) cells | MOLM-13 cells

O=C(CCCCCCNC(=O)c1cnc(N(c2ccccc2)c2ccccc2)nc1)NO [Rocilinostat, Ricolinostat]
greater than 20%: all assays above

O=C(CCCCCCC(=O)Nc1ccccc1)NO [SAHA, Vorinostat]
greater than 20%: all assays above
